The record followed here is the supplement of paper PMC10849652.

Protein sequences, listed by entry. Tags and fused reporters are not part of them. Lines headed by an entry give the natural chain unless they say otherwise; changes in a name come on top.
UniProt Q8IZ13: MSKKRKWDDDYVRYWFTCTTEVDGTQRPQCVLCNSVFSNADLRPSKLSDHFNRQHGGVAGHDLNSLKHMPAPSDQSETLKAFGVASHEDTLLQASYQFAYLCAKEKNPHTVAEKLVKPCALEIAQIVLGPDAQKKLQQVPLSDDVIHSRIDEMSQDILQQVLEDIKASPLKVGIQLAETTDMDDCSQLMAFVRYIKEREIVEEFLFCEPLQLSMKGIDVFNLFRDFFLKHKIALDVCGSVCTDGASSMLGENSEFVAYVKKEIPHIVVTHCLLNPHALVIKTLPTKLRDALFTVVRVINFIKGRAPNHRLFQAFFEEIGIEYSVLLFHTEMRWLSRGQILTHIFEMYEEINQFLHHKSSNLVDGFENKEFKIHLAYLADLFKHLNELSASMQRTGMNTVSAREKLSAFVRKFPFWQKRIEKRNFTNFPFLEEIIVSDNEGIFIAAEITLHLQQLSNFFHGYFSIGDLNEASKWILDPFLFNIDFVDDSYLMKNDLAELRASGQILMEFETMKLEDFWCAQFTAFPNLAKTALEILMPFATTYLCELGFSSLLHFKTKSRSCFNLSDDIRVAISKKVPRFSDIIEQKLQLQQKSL
UniProt Q9NYG2: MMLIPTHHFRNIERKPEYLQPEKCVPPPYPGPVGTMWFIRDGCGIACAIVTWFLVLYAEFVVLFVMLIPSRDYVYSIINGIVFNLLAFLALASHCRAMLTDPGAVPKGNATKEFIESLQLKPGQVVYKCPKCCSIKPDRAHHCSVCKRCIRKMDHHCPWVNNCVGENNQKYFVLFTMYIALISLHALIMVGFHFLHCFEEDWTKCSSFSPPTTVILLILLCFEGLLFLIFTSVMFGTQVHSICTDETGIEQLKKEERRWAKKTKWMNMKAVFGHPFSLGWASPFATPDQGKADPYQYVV
UniProt Q8IX07: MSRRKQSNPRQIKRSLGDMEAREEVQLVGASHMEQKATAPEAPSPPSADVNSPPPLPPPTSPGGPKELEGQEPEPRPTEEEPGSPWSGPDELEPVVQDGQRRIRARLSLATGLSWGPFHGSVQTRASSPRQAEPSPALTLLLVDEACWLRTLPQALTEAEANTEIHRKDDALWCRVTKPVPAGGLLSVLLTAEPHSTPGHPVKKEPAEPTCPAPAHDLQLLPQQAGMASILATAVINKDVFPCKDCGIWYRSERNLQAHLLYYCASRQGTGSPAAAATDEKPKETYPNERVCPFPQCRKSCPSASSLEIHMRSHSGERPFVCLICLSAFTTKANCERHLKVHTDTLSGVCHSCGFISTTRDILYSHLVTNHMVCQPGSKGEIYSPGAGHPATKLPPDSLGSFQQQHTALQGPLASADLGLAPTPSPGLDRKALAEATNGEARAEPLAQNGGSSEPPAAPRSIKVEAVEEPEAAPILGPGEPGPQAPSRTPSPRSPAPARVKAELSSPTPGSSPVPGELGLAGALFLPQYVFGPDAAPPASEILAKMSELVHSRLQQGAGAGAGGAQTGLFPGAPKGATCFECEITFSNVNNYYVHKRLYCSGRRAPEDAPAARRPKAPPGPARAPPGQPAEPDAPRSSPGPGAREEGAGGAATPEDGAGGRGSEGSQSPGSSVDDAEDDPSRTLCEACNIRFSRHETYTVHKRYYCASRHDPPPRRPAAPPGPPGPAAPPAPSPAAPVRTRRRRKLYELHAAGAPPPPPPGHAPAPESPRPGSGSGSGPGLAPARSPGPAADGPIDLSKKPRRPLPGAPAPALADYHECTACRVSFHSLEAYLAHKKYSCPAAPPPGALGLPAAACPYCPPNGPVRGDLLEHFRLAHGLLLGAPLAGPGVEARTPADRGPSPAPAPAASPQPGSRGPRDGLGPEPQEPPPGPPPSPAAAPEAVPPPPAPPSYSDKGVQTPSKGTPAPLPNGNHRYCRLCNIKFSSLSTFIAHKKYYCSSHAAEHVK
UniProt Q969M3: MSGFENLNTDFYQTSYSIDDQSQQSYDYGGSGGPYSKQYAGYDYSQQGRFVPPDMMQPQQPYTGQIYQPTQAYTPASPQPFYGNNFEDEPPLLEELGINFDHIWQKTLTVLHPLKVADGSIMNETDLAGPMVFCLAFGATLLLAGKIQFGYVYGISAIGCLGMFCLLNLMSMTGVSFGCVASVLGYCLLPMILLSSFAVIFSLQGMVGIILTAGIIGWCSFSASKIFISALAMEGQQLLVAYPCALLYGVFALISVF
UniProt Q96EC8: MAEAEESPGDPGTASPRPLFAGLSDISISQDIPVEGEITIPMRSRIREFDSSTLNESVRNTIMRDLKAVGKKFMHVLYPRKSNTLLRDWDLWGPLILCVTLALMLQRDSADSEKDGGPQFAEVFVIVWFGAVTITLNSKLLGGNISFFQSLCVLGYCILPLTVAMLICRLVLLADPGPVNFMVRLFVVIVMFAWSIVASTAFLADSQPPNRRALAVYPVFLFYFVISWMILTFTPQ
UniProt Q96KR1: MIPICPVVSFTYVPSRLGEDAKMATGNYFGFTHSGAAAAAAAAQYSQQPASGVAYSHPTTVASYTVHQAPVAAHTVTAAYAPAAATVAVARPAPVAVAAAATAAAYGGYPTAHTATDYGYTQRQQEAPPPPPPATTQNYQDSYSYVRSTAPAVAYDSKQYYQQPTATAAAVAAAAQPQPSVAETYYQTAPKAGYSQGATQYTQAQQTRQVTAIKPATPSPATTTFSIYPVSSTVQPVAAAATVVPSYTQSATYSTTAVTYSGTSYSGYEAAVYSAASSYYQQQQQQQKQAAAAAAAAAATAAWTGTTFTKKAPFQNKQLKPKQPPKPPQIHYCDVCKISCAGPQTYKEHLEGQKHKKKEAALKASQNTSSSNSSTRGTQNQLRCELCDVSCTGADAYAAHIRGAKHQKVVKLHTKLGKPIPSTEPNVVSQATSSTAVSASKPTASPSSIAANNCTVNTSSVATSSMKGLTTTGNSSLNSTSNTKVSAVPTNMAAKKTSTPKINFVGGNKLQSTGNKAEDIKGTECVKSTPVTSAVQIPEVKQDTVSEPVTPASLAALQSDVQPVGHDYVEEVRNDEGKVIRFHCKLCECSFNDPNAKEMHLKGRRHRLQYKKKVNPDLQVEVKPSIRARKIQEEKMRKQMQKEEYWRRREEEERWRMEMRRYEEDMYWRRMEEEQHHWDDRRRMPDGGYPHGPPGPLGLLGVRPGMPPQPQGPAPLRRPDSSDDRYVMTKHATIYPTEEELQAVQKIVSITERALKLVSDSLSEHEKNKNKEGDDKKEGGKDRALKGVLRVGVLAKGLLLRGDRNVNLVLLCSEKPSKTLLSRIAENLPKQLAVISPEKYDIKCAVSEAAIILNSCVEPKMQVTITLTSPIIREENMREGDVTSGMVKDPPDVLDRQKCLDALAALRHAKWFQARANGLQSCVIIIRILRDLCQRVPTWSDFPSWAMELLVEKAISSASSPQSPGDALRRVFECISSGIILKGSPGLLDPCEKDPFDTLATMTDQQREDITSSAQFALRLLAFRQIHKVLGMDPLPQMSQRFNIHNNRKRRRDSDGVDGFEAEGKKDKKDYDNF
UniProt Q9H6S0: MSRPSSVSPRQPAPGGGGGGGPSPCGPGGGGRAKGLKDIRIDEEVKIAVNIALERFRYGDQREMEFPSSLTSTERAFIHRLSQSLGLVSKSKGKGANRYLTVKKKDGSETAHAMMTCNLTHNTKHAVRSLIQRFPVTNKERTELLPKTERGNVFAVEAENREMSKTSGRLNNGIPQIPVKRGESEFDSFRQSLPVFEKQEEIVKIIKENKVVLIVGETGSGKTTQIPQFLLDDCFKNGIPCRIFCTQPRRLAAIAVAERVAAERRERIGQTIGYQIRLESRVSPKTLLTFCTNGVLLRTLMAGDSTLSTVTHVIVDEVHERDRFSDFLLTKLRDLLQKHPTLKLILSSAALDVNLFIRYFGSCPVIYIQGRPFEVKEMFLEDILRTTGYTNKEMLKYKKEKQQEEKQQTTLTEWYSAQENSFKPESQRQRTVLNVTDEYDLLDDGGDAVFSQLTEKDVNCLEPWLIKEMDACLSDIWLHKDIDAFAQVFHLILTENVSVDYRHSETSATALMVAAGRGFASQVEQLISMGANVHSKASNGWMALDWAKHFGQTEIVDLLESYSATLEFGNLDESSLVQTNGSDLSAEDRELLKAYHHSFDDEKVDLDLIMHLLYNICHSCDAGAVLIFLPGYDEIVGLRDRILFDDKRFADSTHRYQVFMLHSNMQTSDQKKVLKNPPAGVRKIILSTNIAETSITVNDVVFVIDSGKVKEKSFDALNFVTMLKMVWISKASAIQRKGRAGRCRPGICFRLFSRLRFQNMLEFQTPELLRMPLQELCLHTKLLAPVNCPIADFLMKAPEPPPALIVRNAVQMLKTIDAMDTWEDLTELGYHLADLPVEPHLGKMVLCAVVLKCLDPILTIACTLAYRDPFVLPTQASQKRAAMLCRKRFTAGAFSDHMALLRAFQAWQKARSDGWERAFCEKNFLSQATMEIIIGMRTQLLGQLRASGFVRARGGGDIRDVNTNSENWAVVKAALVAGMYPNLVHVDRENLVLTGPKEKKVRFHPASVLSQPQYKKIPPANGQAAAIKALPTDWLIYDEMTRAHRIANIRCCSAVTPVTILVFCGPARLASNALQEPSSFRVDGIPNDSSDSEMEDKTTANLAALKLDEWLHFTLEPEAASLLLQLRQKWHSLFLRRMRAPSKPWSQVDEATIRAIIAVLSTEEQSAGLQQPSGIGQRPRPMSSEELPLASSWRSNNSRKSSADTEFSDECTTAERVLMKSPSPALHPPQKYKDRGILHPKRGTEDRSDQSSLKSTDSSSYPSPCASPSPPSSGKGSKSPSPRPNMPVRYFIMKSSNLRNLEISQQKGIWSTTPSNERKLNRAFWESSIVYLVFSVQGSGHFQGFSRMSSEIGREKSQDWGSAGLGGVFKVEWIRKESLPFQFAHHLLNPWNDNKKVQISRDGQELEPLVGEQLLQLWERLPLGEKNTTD
UniProt Q6FIF0: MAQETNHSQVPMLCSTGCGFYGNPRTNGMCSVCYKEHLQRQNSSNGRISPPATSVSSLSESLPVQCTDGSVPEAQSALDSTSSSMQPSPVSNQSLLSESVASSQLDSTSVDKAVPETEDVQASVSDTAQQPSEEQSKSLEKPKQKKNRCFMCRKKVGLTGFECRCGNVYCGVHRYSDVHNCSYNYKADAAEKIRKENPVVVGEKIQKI
UniProt O96006: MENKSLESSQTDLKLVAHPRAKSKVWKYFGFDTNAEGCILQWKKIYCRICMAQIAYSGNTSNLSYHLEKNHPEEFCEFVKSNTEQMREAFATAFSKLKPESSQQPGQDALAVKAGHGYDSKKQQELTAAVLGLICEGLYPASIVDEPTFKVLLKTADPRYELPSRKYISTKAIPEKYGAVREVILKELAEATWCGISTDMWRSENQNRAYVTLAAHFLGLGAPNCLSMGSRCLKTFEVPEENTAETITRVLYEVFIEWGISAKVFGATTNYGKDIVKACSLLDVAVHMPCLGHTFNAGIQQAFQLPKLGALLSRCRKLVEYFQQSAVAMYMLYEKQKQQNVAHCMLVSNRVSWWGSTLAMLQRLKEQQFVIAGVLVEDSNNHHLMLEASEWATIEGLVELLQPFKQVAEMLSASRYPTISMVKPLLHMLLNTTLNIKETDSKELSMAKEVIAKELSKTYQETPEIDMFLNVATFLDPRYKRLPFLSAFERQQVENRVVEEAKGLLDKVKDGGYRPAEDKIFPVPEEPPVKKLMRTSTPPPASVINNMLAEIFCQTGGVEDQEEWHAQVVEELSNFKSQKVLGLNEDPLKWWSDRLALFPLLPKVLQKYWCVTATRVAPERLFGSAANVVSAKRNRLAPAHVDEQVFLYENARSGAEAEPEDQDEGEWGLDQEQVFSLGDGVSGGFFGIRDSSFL
UniProt Q8N5P1: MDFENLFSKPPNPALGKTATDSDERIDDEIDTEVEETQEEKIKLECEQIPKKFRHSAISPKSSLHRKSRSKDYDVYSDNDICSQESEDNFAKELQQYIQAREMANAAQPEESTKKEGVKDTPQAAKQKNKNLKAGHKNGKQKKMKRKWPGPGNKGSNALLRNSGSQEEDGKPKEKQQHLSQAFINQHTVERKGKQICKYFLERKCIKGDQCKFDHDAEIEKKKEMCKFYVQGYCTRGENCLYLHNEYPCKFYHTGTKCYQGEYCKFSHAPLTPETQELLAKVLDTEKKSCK
UniProt A8MPS7: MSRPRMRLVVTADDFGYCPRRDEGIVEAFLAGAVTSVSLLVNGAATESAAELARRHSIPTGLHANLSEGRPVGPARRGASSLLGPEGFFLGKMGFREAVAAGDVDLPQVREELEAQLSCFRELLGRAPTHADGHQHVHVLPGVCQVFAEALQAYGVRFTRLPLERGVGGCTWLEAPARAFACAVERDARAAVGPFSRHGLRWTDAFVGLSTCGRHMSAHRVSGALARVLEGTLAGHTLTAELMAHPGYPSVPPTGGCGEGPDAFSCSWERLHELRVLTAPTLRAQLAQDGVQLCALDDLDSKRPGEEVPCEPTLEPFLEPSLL

Some of the results follow.

Compound in the assay: c1cn2cc(-c3ccc4cn[nH]c4c3)nc(Nc3ccc(N4CCOCC4)cc3)c2n1 [entospletinib]
Put plainly: log2 fold change, soluble protein after heating vs DMSO (PISA); higher = thermal stabilisation; K562 lysate, 10 uM; active = over 0.2 and 3.5 SD of the protein, either way, in both replicates (recomputed). The method, boiled down: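 Dounce homogenisation of K562 pellets in PBS pH 7.4 with 1 mM MgCl2 produced a crude extract, used at 1 mg/mL protein. Exposure to 10 μM compound lasted 30 min, and aliquots were then heated for 3 min across 48°C-58°C, pooled and brought to 0.5% NP-40 at 4°C. The supernatant after 21,000xg for 90 min was quantified by TMTpro 16plex LC-MS/MS with channel sums equalised. Duplicate values are given as log-two fold change in thermal stability relative to solvent controls.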
As to YBX3 (UniProt P16989), the log2 fold change was inactive: 0.001.

With ZBED8 (UniProt Q8IZ13), the log2 fold change is inactive: 0.

For XPO7 (UniProt Q9UIA9), the log2 fold change was inactive: 0.018.

Turning to YIPF3 (UniProt Q9GZM5), the log2 fold change is inactive: 0.003.

Take XPO6 (UniProt Q96QU8): the log2 fold change is inactive: -0.027.

Take ZDHHC3 isoform 2 (UniProt Q9NYG2): the log2 fold change is inactive: -0.007.

ZFPM1 (UniProt Q8IX07): the log2 fold change is inactive: -0.021.

For YES1 (UniProt P07947), the log2 fold change is inactive: 0.038.

Regarding ZFAND2B (UniProt Q8WV99), the log2 fold change was inactive: -0.011.

As to XPO1 (UniProt O14980), the log2 fold change was inactive: 0.036.

Take ZCCHC3 (UniProt Q9NUD5): the log2 fold change is inactive: -0.024.

For YIPF5 isoform 3 (UniProt Q969M3), the log2 fold change was inactive: -0.044.

Take ZC3H18 (UniProt E7ERS3): the log2 fold change was inactive: 0.

For the target YBX3 isoform 2 (UniProt P16989), the log2 fold change was inactive: 0.006.

On to ZC3H4 (UniProt Q9UPT8), for which the log2 fold change was inactive: -0.02.

For YJU2 (UniProt Q9BW85), the log2 fold change was inactive: -0.002.

For the target ZC3H15 (UniProt Q8WU90), the log2 fold change was inactive: 0.001.

For YIPF6 (UniProt Q96EC8), the log2 fold change was inactive: -0.11.

Take XRCC1 (UniProt P18887): the log2 fold change was inactive: 0.041.

On to ZFR (UniProt Q96KR1), for which the log2 fold change is inactive: 0.002.

In the case of YME1L1 (UniProt Q96TA2), the log2 fold change is inactive: 0.02.

Turning to YTHDC2 (UniProt Q9H6S0), the log2 fold change was inactive: 0.013.

Turning to ZFAND6 (UniProt Q6FIF0), the log2 fold change is inactive: -0.035.

For the target ZER1 (UniProt Q7Z7L7), the log2 fold change is inactive: -0.008.

For XPNPEP3 (UniProt Q9NQH7), the log2 fold change was inactive: 0.043.

On to ZBED1 (UniProt O96006), for which the log2 fold change is inactive: -0.047.

As for XPOT (UniProt O43592), the log2 fold change is inactive: 0.037.

YRDC (UniProt Q86U90): the log2 fold change was inactive: -0.016.

For YY1 (UniProt P25490), the log2 fold change was inactive: -0.022.

In the case of ZGPAT (UniProt Q8N5A5), the log2 fold change was inactive: -0.078.

On to XRCC6 (UniProt P12956), for which the log2 fold change is inactive: 0.008.

With YKT6 (UniProt O15498), the log2 fold change is inactive: 0.008.

As for YARS2 (UniProt Q9Y2Z4), the log2 fold change is inactive: 0.028.

As to ZC3H8 (UniProt Q8N5P1), the log2 fold change is inactive: 0.015.

As for ZCCHC8 (UniProt Q6NZY4), the log2 fold change is inactive: 0.017.

In the case of YLPM1 (UniProt P49750), the log2 fold change is inactive: -0.004.

ZC3H7B (UniProt Q9UGR2): the log2 fold change was inactive: 0.118.

Turning to YIPF4 (UniProt Q9BSR8), the log2 fold change was inactive: 0.024.

On to YDJC (UniProt A8MPS7), for which the log2 fold change was inactive: 0.051.

With ZBTB21 (UniProt Q9ULJ3), the log2 fold change was inactive: -0.114.
